# Test results taken from article PMC4762662.
# Amino acid sequences for entries named in this document (tags omitted).
# UniProt Q86WV6: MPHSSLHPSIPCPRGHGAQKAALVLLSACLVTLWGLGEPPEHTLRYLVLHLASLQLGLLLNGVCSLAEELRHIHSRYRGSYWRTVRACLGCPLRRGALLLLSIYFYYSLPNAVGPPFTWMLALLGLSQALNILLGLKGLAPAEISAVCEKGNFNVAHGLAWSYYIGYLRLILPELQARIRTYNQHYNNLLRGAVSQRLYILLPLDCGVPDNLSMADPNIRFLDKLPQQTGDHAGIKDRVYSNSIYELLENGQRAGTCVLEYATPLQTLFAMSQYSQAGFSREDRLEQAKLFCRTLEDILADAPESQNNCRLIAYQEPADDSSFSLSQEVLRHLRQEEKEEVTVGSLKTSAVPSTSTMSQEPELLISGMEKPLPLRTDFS
# Results are given in words; binding and its absence hold for the method and conditions named. For some assays here: In cells and extracts the contact can be indirect. Some entries that bind do so weakly or less than the wild type. For some assays here: Where a sequence is shown, tags or fusion partners need not be part of it.
# T1: IRF3, endogenous in MEF cells (mouse (endogenous in MEF)) (UniProt P70671)
# T1 sequence: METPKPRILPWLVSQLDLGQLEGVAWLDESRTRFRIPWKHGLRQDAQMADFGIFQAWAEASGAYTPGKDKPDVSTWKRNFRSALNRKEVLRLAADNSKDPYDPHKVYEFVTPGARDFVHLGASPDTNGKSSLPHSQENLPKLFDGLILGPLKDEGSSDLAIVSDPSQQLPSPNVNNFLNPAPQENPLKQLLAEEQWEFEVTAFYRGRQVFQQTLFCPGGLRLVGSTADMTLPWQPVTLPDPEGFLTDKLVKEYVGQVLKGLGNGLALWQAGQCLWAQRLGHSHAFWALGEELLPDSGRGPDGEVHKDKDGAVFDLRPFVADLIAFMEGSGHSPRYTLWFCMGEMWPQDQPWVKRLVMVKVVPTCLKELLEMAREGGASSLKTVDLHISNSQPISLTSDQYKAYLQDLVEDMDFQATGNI
# T2: STING, endogenous in MEF cells (mouse (endogenous in MEF)) (UniProt Q3TBT3)
# T2 sequence: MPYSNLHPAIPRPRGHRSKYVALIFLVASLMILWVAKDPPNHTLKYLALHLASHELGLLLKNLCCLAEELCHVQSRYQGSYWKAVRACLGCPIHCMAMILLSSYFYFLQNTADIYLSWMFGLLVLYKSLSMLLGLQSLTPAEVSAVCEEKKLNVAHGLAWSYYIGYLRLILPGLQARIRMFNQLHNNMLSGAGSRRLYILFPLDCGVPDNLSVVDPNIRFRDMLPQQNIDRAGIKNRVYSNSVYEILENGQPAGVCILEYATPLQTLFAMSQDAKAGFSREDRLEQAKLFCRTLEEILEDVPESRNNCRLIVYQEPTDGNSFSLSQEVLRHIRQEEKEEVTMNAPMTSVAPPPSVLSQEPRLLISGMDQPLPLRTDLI
# T3: IRF3, endogenous in MEF cells (mouse (endogenous in MEF)), P70671
# T3 chain: T1 sequence
# B1: insulin induced gene 1 (INSIG1), epitope-tagged (protein, UniProt O15503-1 1-277)
# chain: MPRLHDHFWSCSCAHSARRRGPPRASAAGLAAKVGEMINVSVSGPSLLAAHGAPDADPAPRGRSAAMSGPEPGSPYPNTWHHRLLQRSLVLFSVGVVLALVLNLLQIQRNVTLFPEEVIATIFSSAWWVPPCCGTAAAVVGLLYPCIDSHLGEPHKFKREWASVMRCIAVFVGINHASAKLDFANNVQLSLTLAALSLGLWWTFDRSRSGLGLGITIAFLATLITQFLVYNGVYQYTSPDFLYIRSWLPCIFFSGGVTVGNIGRQLAMGVPEKPHSD
# B2: TBK1, Flag-tagged, Q9UHD2 1-729 (enzyme)
# chain: MQSTSNHLWLLSDILGQGATANVFRGRHKKTGDLFAIKVFNNISFLRPVDVQMREFEVLKKLNHKNIVKLFAIEEETTTRHKVLIMEFCPCGSLYTVLEEPSNAYGLPESEFLIVLRDVVGGMNHLRENGIVHRDIKPGNIMRVIGEDGQSVYKLTDFGAARELEDDEQFVSLYGTEEYLHPDMYERAVLRKDHQKKYGATVDLWSIGVTFYHAATGSLPFRPFEGPRRNKEVMYKIITGKPSGAISGVQKAENGPIDWSGDMPVSCSLSRGLQVLLTPVLANILEADQEKCWGFDQFFAETSDILHRMVIHVFSLQQMTAHKIYIHSYNTATIFHELVYKQTKIISSNQELIYEGRRLVLEPGRLAQHFPKTTEENPIFVVSREPLNTIGLIYEKISLPKVHPRYDLDGDASMAKAITGVVCYACRIASTLLLYQELMRKGIRWLIELIKDDYNETVHKKTEVVITLDFCIRNIEKTVKVYEKLMKINLEAAELGEISDIHTKLLRLSSSQGTIETSLQDIDSRLSPGGSLADAWAHQEGTHPKDRNVEKLQVLLNCMTEIYYQFKKDKAERRLAYNEEQIHKFDKQKLYYHATKAMTHFTDECVKKYEAFLNKSEEWIRKMLHLRKQLLSLTNQCFDIEEEVSKYQEYTNELQETLPQKMFTASSGIKHTMTPIYPSSNTLVEMTLGMKKLKEEMEGVVKELAENNHILERFGSLTMDGGLRNVDCL
# B3: SCAP, endogenous in MEF cells (protein, UniProt Q6GQT6 1-1276)
# chain: MTLTERLREKISQAFYNHGLLCASYPIPIILFTGLCILACCYPLLKLPLPGTGPVEFSTPVKGYSPPPADSDHKQGEPSEQPEWYVGAPVAYIQQIFVKSSVSPWHRNLLAVDVFRSPLSRAFQLVEEIRNHVLRDSSGTKSLEEVCLQVTDLLPGLRKLRSLLPEHGCLLLSPGNFWQNDWERFHADPDIIGTIHQHEPKTLQTSATLKDLLFGVPGKYSGVSLYTRKRMVSYTITLVFQRYHAKFLSSLRARLMLLHPSPNCSLRAENLVHVHFKEEIGIAELIPLVTTYIILFAYIYFSTRKIDMVKSKWGLALAAVVTVLSSLLMSVGLCTLFGLTPTLNGGEIFPYLVVVIGLENVLVLTKSVVSTPVDLEVKLRIAQGLSSESWSIMKNAATELGIILIGYFTLVPAIQEFCLFAVVGLVSDFFLQMLFFTTVLSIDIRRMELADLNKRLPPESCLPSAKPVGRPARYERQQAVRPSTPHTITLQPSSFRNLRLPKRLRVIYFLARTRLAQRLIMAGTVVWIGILVYTDPAGLRTYLAAQVTEQSPLGEGSLGPMPVPSGVLPASHPDPAFSIFPPDAPKLPENQTLPGELPEHAGPAEGVHDSRAPEVTWGPEDEELWRKLSFRHWPTLFNYYNITLAKRYISLLPVIPVTLHLNPREALEGRHPQDGRSAWAPQEPLPAGLWESGPKGPGGTQTHGDITLYKVAALGLAAGIVLVLLLLCLYRVLCPRNYGQPGGGPGRRRRGELPCDDYGYAPPETEIVPLVLRGHLMDIECLASDGMLLVSCCLAGQVCVWDAQTGDCLTRIPRPGPRRDSCGGGAFETQENWERLSDGGKASPEEPGDSPPLRRRPRGPPPPSLFGDQPDLTCLIDTNFSVQLPPEPTQPEPRHRVGCGRSRDSGYDFSRLVQRVYQEEGLAAMRMPALRPPSPGPPLPQASQEEGTAPEKGSPPLAWTPSTAGSIWSLELQGNLIVVGRSSGRLEVWDAIEGVLCCSNEEISSGITALVFLDRRIVAARLNGSLDFFSLETHTSLSPLQFRGTPGRGSSPSSSVYSSSNTVTCHRTHTVPCAHQKPITALRAAAGRLVTGSQDHTLRVFRLDDSCCLFTLKGHSGAITAVYIDQTMVLASGGQDGAICLWDVLTGSRVSQTFAHRGDVTSLTCTASCVISSGLDDFISIWDRSTGIKLYSIQQDLGCGASLGVISDNLLVTGGQGCVSFWDLNYGDLLQTVYLGKNSEAQPARQILVLDNAAIVCNFGSELSLVYVPSVLEKLD
# B4: IRF3, endogenous in MEF cells, P70671 1-419 (protein)
# chain: T1 sequence
# How the values were obtained:
# [1] = molecular target: Stimulator of interferon genes (STING), HA-tagged (human (by the printed RefSeq entry)) (UniProt Q86WV6); assay: co-IP
# [2] = molecular target: Stimulator of interferon genes (STING), HA-tagged (human (by the printed RefSeq entry)), Q86WV6; assay: co-IP; conditions: remark: other sources report otherwise
# [3] = molecular target: T1, IRF3, endogenous in MEF cells (mouse (endogenous in MEF)); assay: co-IP; endogenous proteins in MEF lysates; IP with anti-STING or anti-IRF3 antibody or normal IgG; cells untreated or stimulated with HSV-1, Listeria monocytogenes or ISD; with N.C., Insig1 or Scap siRNA; with or without stable Flag-SCAP; WT or sting-/- MEF
# [4] = molecular target: T2, STING, endogenous in MEF cells (mouse (endogenous in MEF)); assay: as above
# [5] = molecular target: T3, IRF3, endogenous in MEF cells (mouse …); assay: native gel or EMSA; native PAGE of extracts of MEF cells stimulated with ISD, after N.C., Scap or Tom20 siRNA; IRF3 dimerization; conditions: remark: other sources report otherwise
binder,measurement,setting,value
B1,binding,[1],binds
B2,binding,[2],binds
B3,binding,[3],binds
same,binding,[4],binds
B4,binding,[5],binds
